# Screening data, single-dose tests

The values are deposited in ChEMBL (CHEMBL3988442, “University of Dundee, Small-Polar-MMV Screening Library” (2021)).

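Whole-parasite assay of Trypanosoma brucei over 72 hours; the read-out is not stated. Tested at 30 µM. Higher reads as stronger inhibition (inferred: compounds with an IC50 in retests scored well above the rest). Values scatter widely below zero; nearly all retest evidence comes from the higher of the two concentrations used. About 64,000 compounds were tested under these conditions; 1.5% (about 940) showed 50% or more at least once.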

Values are the deposited “Percent Effect”, in %.
The record does not define 0% and 100%; most values in the screen are far below 50% and negative numbers occur (in some assays of this library far below -100).
This is an unselected part of the compounds tested.

SMILES	effect
Cc1nn(C)c(C)c1CC(=O)NCC1(C(N)=O)CCOCC1	1.738
CC(c1cccnc1)N1CCN(C(=O)NCc2cnn(C)c2)CC1 (stereo not given)	-20.02
[H][C@@]12CN(C)C(=O)N1CCN(C(=O)c1ccc3c(c1)OCO3)C2	-14.32
CCc1nc2c(c(NC3CCC3)n1)CCN(C(=O)CO)CC2	-65.17
CN(C)Cc1ccccc1CN(C)c1ncnc2[nH]ccc12	-4.226
CC(=O)Nc1nc(C(=O)Nc2ccc(N3CCCCC3)nc2)cs1	31.99
COc1cc(CN2CCCCCC2c2cccs2)cc(OC)c1OC (stereo not given)	-14.28
O=C(Nc1ccc2c(c1)OCO2)Nc1cnn(C2CCOCC2)c1	-7.546
N[C@@H](C(=O)N1CCN(c2ccccc2Cl)C(=O)C1)c1ccccc1	-2.657
COC(=O)c1ccoc1CN(C1CC1)C1CCS(=O)(=O)C1 (stereo not given)	-8.18
Cc1ccc(C(=O)N(C)S(C)(=O)=O)cc1Cl	-10.14
Cc1cc(C)n(C2CCCN(C(=O)c3c(C)c(C)n[nH]c3=O)C2)n1 (stereo not given)	-8.938
Cn1ncc(N2CCOCC2)c(Cl)c1=O	-57.08
CCc1n[nH]c(C(=O)N2CCCC3(CN(C)C(=O)O3)C2)c1C (stereo not given)	-12.29
Cc1nc(CN2CCN(CCCc3nc4ccccc4o3)CC2)no1	-24
CC(C)N1CCCCC1c1cc(CO)[nH]n1 (stereo not given)	-23.88
Cc1cc(C(=O)N2CC[C@@]3(C[C@@H](NS(C)(=O)=O)CCO3)C2)no1	-44.78
CN(Cc1ccco1)Cc1ccccc1CNC(=O)c1c[nH]nn1	-40.7
Cc1ccc2oc(CNC(C)c3nnc4n3CCCC4)cc2c1 (stereo not given)	-27.07
CCN(Cc1ccncc1)C(=O)c1cn(CCCc2ccccc2)nn1	-48.15
Cc1ccc(NC(=O)c2coc(C)n2)c(C)c1	-7.759
CCCNC(=O)C1CCN(CC(O)c2ccccc2)CC1 (stereo not given)	6.434
CN(C)Cc1cc(=O)n2c(n1)CN(C(=O)c1ccc[nH]1)CCC2.O=C(O)C(F)(F)F	-3.973
CC(C)(C)C(=O)NCCn1ccc(-c2ccccn2)n1	2.725
CCc1ccc(NC(=O)c2cnc(N3CCN(C)CC3)nc2C)cc1	11.79
CCN(CC)C(=O)c1nnsc1-c1ccc(Cl)cc1	-6.834
O=C1CCCN1CCC1CCCCN1C(=O)c1ccc(SCCO)cc1 (stereo not given)	-10.72
COc1cn(CC(N)=O)c(CSc2nccc(C)n2)cc1=O	-29.2
CCCN1CCN(c2nc(N)nc3c2nc(C)n3C)CC1	-37.45
O=S(=O)(CC1CCCCO1)Nc1c(F)cccc1-n1cccn1 (stereo not given)	4.376
CCN(Cc1ccc(-c2ccccn2)cc1)C1CCS(=O)(=O)C1 (stereo not given)	43.61
CCc1nc(C2CCCN(C(=O)CN(C)S(C)(=O)=O)C2)no1 (stereo not given)	1.741
Cc1ncsc1C(=O)N1CCCC(n2cncn2)C1 (stereo not given)	8.798
CSCc1ccc(N2CCC(C(O)CC(C)C)CC2)nc1 (stereo not given)	-19.69
CS(=O)(=O)c1snnc1C1CCN(Cc2cccc(O)c2)CC1	-18.86
Cc1cccc(CNC2CC(=O)N(Cc3cccc(F)c3)C2)c1 (stereo not given)	11.71
O=C1CN(CC2CC2)Cc2nc(NCCc3ccccn3)sc21	-22.45
Cc1oc(-c2nc(C#N)c(N(C)C)o2)cc1S(=O)(=O)N1CCCCCC1	-15.09
COC(=O)[C@@H]1Cc2ncn(C)c2CN1S(=O)(=O)c1cccs1	-28.93
COc1ccc(CNC[C@H]2COCc3nc4cccnc4n32)cc1	-10.66
CN(C(=O)C1CSCN1S(=O)(=O)c1ccc(F)cc1)C1CC1 (stereo not given)	6.719
CS(=O)(=O)NCC(=O)N[C@H]1CN(CC2CC2)C[C@@H]1c1ccccc1	-8.531
COCCn1ccnc1C1CCN(C(=O)CSc2nnc(C)o2)CC1	-72.59
CC(=O)N1CCN([C@@H]2CC[C@@H](NC(=O)c3cc(C)cs3)[C@H]2O)CC1	0.4819
Cc1ccc(N2CCC3(CCN(C(=O)c4ccsc4)C3)CC2)nn1.O=C(O)C(F)(F)F	-4.492
CC(C)c1nc(C2CCCN2CCS(=O)(=O)c2ccccc2)no1 (stereo not given)	-0.1487
COc1ccccc1OCC(=O)NCC(O)(c1cccs1)C1CC1 (stereo not given)	4.035
Cc1nn(CC(=O)NCc2cc3n(n2)CCCN(CC(C)C)C3)cc1Cl	-159
CN(C)CCN1CCCC12CCN(C(=O)c1cccnc1)CC2.O=C(O)C(F)(F)F.O=C(O)C(F)(F)F	-2.077
CN(Cc1ccon1)C(=O)C1CC(=O)N(Cc2ccncc2)C1 (stereo not given)	-16.31
Cc1ccn(-c2ccccc2NCc2cccnc2C)n1	-29.59
CC(C)NC(=O)c1ccc(NC(=O)NC(C)c2ccccn2)cc1 (stereo not given)	-17.83
COc1nc2c(cc1C(=O)NCCCc1csc(N)n1)CCC2	-6.976
Cc1n[nH]c(C)c1C1COCCN1c1ncnc2sccc12 (stereo not given)	17.97
CCCNC(=O)NCc1cccnc1OC	-24.84
CN(CCC(F)(F)F)c1nc2ccccc2c(=O)[nH]1	-46.57
[H][C@@]12CS(=O)(=O)C[C@]1([H])N(C(=O)CCC(F)(F)F)CCN2Cc1ccncc1	-43.45
CC(C(=O)N1CCC(Cc2ccc(F)cc2)CC1)n1ccnc1 (stereo not given)	11.14
O=C(O)C(F)(F)F.[H][C@@]12CN(C(=O)c3cc(C)oc3C)C[C@]1([H])OCCN2CCN1CCCC1	-155.9
CC(C)S(=O)(=O)C(C)C(=O)NCc1cccc(N2CCCCC2=O)c1 (stereo not given)	-6.737
CC(C)n1c(C2CCCN(CC(N)=O)C2)nc2ccccc21 (stereo not given)	9.017
Cc1cnn(CC2CCCN2C(=O)c2cccc(S(C)(=O)=O)c2)c1 (stereo not given)	-5.307
O=C(C1CCOCC1)N1CCC2(CCN(Cc3nccs3)CC2)CC1.O=C(O)C(F)(F)F	11.85
Cc1nc(COC[C@H]2CCC[C@]23CN(C2CCOC2)CCO3)cs1 (stereo not given in full)	5.633
Cc1nn(-c2ccccn2)c(C)c1[C@@H]1C=C[C@@H](NC(=O)CCC(=O)O)C1	-5.926
CSc1ccccc1C(=O)Nc1ccc(OC2CCN(C)CC2)cc1	-33.59
O=C(NCC1CCN(Cc2cc3ccccc3[nH]2)C1)c1ccsc1 (stereo not given)	7.679
Cc1ccc2c(ccn2CCC(=O)N2CCC(C(N)=O)CC2)c1	35.3
Cn1cncc1-c1nnc([C@H]2CCN(Cc3ccc(F)c(F)c3)C2)o1	-1.033
[H][C@@]12COC[C@]1(COCc1ccccn1)CN(c1ncccn1)C2	-12.83
Cn1nc(Cn2cccn2)c2c1CN(C1CCOCC1)C2.O=C(O)C(F)(F)F	0.525
Cc1cc(C)c(CNC(=O)NCC2CCCO2)c(=O)[nH]1 (stereo not given)	-63.83
COc1ccc(CNC(=O)NCCc2nc(C)c(C)s2)cn1	-35.3
N#CCCN(C(=O)CCc1cccnc1)c1ccc2c(c1)OCCO2	-25.88
Cc1nn(C2CCS(=O)(=O)C2)c(O)c1CCc1ccccc1 (stereo not given)	-25.81
Cc1nn(-c2ccccc2)c(C)c1CNC1CCc2ncnn2C1 (stereo not given)	-15.46
Cc1ccc(C(=O)NC2CCN(C(C)C)C2)c(=O)[nH]1 (stereo not given)	-10.82
[H][C@@]12CS(=O)(=O)C[C@]1([H])N(Cc1ncc[nH]1)CCN2CCCc1ccccc1	21.93
CN(C)CCN1C(=O)CCC12CCCN(C(=O)C1CC=CC1)CC2.O=C(O)C(F)(F)F (stereo not given)	14.28
COc1cc(NC(=O)c2ccc(C)cc2C)c(C(=O)N(C)C)cc1OC	34.81
[H][C@@]12OCCN(C(=O)C3CCOCC3)[C@@]1([H])CC[C@H]2OCC	27.45
Cc1csc(C(C)(C)NCC(=O)N2CCCC(C(F)(F)F)C2)n1 (stereo not given)	-6.533
c1ccc(-n2ncc(CNC3CCc4ncnn4C3)n2)cc1 (stereo not given)	-2.635
Cc1nc2ccccc2nc1CN(C)C1CCCN(c2cccnn2)C1 (stereo not given)	-2.543
CN1CCC2(CC1)C(=O)N(C)c1ccc(F)cc12.Cl	-19.58
CCOCC(=O)NCC1(NC(C)c2ccccc2)CCOCC1 (stereo not given)	-5.173
CC(=O)N1CCCN(C(=O)c2csc(-c3ccc(C)cc3C)n2)CC1	20.93
CC(C(=O)N1CCN(CCOc2ccccc2)CC1)n1cncn1 (stereo not given)	-39.15
CN(C)C(=O)c1cccc(CCNc2ccccc2S(C)(=O)=O)c1	-18.24
COc1ccc(Oc2ccc(CNC(=O)C(C)n3cncn3)cn2)cc1 (stereo not given)	-22.12